## Screening data, single-dose tests

Sequences of proteins named here, by UniProt entry; tags and fusion partners are left off. Residues count along the entry.
UniProt A4I591, 1-473: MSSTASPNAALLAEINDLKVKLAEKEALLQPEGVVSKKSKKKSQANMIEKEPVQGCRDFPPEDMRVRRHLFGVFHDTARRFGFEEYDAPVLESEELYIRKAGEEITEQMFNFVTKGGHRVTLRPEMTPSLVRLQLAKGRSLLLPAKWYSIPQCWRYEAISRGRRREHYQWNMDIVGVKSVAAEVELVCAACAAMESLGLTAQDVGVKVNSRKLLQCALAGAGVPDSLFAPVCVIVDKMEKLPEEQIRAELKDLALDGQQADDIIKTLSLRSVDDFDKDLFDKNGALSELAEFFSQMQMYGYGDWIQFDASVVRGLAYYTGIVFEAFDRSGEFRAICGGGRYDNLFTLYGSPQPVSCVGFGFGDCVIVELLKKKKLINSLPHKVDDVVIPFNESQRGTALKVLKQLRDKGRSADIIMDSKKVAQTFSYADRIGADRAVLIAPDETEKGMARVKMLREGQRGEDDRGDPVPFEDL
UniProt P9WNZ1, whole entry: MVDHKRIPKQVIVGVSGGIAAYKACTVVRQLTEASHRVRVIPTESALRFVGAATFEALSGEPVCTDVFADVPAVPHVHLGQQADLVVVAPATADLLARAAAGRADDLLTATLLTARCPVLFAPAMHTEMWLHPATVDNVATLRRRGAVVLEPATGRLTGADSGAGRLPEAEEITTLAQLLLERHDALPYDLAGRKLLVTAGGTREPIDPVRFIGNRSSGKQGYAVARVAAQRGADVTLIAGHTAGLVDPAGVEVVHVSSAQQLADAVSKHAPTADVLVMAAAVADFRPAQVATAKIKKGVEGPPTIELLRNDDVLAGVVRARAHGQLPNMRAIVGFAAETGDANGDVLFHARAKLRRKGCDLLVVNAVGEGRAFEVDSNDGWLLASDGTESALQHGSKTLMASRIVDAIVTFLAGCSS
UniProt P9WFT3, whole entry: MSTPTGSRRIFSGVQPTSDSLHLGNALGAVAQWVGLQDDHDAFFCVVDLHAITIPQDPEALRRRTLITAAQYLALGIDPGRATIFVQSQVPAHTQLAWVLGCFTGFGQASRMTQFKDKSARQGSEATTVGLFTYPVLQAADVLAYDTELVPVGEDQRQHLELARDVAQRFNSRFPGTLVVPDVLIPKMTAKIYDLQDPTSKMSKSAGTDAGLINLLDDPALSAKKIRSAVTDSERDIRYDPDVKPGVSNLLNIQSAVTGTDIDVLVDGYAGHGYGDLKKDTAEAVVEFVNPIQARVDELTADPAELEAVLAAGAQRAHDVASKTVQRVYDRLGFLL

A: 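Enzyme assay of histidyl-tRNA synthetase; the read-out is not stated. Target: Histidine-tRNA ligase, Leishmania infantum (UniProt A4I591). Compounds at 30 µM. Higher reads as stronger inhibition (inferred: compounds with an IC50 in retests scored well above the rest). The assay is labelled LdHisRS but filed under L. infantum. Of about 69,000 compounds tested this way, about 410 (0.6%) reached 50% or more in at least one test.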
B: 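Coenzyme A biosynthesis protein CoaBC, Mycobacterium tuberculosis (UniProt P9WNZ1). Enzyme assay of CoaBC with a phosphate dye (Biomol Green) read at 650 nm. Tested at 30 µM. Higher reads as stronger inhibition, judged from the few compounds that gave an IC50. Most strong results did not repeat in a second test. Size under these conditions: about 67,000 compounds, about 40 of them at 50% or above in at least one test.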
C: 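Tryptophan-tRNA ligase, Mycobacterium tuberculosis (UniProt P9WFT3). Enzyme assay of tryptophanyl-tRNA synthetase; the read-out is not stated. Compounds at 10 µM. Higher most likely means stronger inhibition; the record gives no direction and few retests gave an IC50. Size under these conditions: about 65,000 compounds, about 64 of them at 50% or above in at least one test.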

Values are the deposited “Percent Effect”, in %.
The controls that fix the scale are not given in the record; negative values are as filed.
This is an unselected part of the compounds tested.

Cc1ccc(CN2CCN(c3ncccc3Cl)CC2CCO)cc1 (stereo not given) gave A: 18.75%; B: 1.683%; C: 4.338%. Result for CC(=O)N1CCCCCC1C1CCN(Cc2nc(C3CC3)no2)CC1 (stereo not given) was A: -17.95%; B: 2%; C: -1.699%. O=C(C1CCC1)N1C(CN2CCOCC2)[C@]2(O)CC[C@H]1CC2 (stereo not given in full) read A: 14.43%; B: 0.8589%. With CCOc1ccccc1-n1c(-c2cn(CC)nc2C)n[nH]c1=O the screen gave A: 18.57%; B: 5.943%; C: -0.361%. With COc1ccsc1C(=O)NCCNc1ccccc1 the screen gave A: 11.69%; B: 2.215%; C: -2.882%. CC(C)C(=O)NC1CCCN(C(=O)c2cc3ccccc3cc2O)C1 (stereo not given) gave A: 21.05%; B: 6.832%; C: -1.467%.

For Cc1cccc(CN2CC3(CCN(Cc4ccoc4)CC3)OCC2=O)n1 the result was A: 18.06%; B: -3.704%; C: 10.62%. For Cc1nc(CN(C)C2CCN(CC3CCC3)C2)no1 (stereo not given) the result was A: 15.18%; B: 6.769%; C: -3.595%. For CC(NC(=O)NCC(C)(C)C(N)=O)c1nc(-c2ccccc2)cs1 (stereo not given) the result was A: 11.71%; B: 10.89%; C: 2.089%. For O=C(Nc1ccc2ncsc2c1)N1CCCN([C@H]2COC[C@@H]2O)CC1 the result was A: 17.02%; B: 3.722%; C: 0.1904%. Cc1cccc(NC(=O)Cn2nc3ccccn3c2=O)c1C gave A: 9.649%; B: -10.13%; C: -2.966%. COc1cc(-c2cnnc(NCCSC)n2)cc(OC)c1OC gave A: 0%; B: 2.314%; C: -2.991%.

O=C1CCCN1CCCC(=O)N1CCC2(CC1)[C@H](O)C[C@@H]2O read A: 8.197%; B: -2.381%; C: -0.3221%. OC1(CN2CCN(c3cccc(C(F)(F)F)c3)CC2)CNCCOC1 (stereo not given) read A: 2.083%; B: -18.3%; C: -3.612%. With CCC(CNC(=O)c1cncc(Br)c1)N1CCc2ccccc2C1 (stereo not given) the screen gave A: 23.29%; B: -15.06%; C: 0.2646%. For CSc1ccccc1C(=O)NCc1cc2n(n1)CCCN(CC(C)C)C2 the result was A: 8.772%; B: -0.6536%; C: 41.96%. Result for Cc1cccc(C2(NCCCS(C)(=O)=O)CCCC2)c1 was A: 4%; B: -6.198%; C: -0.4421%. CC(c1ncc(C(C)(C)C)o1)N1CCN(c2ccncc2)CC1 (stereo not given) read A: -4.167%; B: 1.923%; C: -0.1142%.

With COc1cc(CCC(=O)N2CCC(c3cc4ncccc4[nH]3)CC2)on1 the screen gave A: 5.634%; B: -18.99%; C: 1.979%. With CN(C)c1cc(NCc2cnc3n2CCN(CC2CC2)CC3)ncn1 the screen gave A: 18.8%; C: 0.8721%. Result for Cc1nc(CN2CCO[C@@H]3CC(COc4ccccn4)C[C@H]32)cs1 (stereo not given in full) was A: 15.09%; B: 0%. Result for O=c1oc(-c2cccs2)nn1CC(O)c1ccccc1F (stereo not given) was A: 6.25%; B: -5.372%; C: -0.7965%. COCCn1ccnc1C1CCCN(C(=O)c2cccnc2SC)C1 (stereo not given) read A: -1.37%; B: -6.688%; C: 0.5623%. Cc1ccc(-c2nc(CN3CCn4c(C)nnc4C3)co2)cc1 read A: 13.79%; B: 1.044%; C: 1.847%.

With CC(C)=CCN1CCN(Cc2cc(C)n[nH]2)CC1CCO (stereo not given) the screen gave A: 18.57%; B: 6.762%; C: 3.43%.

Data taken from ChEMBL document CHEMBL3988442, “University of Dundee, Small-Polar-MMV Screening Library” (2021).